Screening data, single-dose tests

Each number is a percent effect as filed. The record does not define 0% and 100%; most values in the screen are far below 50% and negative numbers occur (in some assays of this library far below -100). This is an unselected part of the compounds tested.

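Whole-parasite assay of Trypanosoma brucei over 72 hours; the read-out is not stated. Tested at 10 µM. Direction is inferred from retests: higher values go with stronger inhibition. Values scatter widely below zero; nearly all retest evidence comes from the higher of the two concentrations used. Size under these conditions: about 2,700 compounds, about 14 of them at 50% or above in at least one test.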

Compound	effect
Cc1ncc(C(=O)N2CCCC(n3nc(C)nc3C)C2)c(C(C)C)n1 (stereo not shown)	-43.62
O=C(COCC1CC1)Nc1ncn(CC(=O)N2CCCCCC2)n1	-61.22
Cc1ccoc1-c1nnc(CN2CCOC(Cn3cccn3)C2)o1 (stereo not shown)	-8.14
O=C(NCc1ccoc1)Nc1cc(C(F)(F)F)c[nH]c1=O	-70.05
COC(=O)c1cccn1C1CCN(Cc2cccnc2)CC1	-45.41
CS(=O)(=O)NC1CCCN(C(=O)NCc2cccc(F)c2)C1 (stereo not shown)	-26.34
Clc1cccc(Cl)c1-c1nnc(CNCCn2cccn2)o1	-18.38
COc1c(CNCC(O)c2ccc(C)cc2)c(C(C)C)nn1C (stereo not shown)	-42.42
Cc1ccc(-c2noc(CN3CCc4nn(C)c(=O)cc4C3)n2)cc1	-39.02
CN(Cc1noc(C2CC2)n1)C1CCN(Cc2cccc(F)c2F)C1 (stereo not shown)	-17
CCOC1CCN(C(=O)CN(C)c2cnccn2)CC1	-68.76
c1ccc(CCCN2CCCC2Cn2cncn2)cc1 (stereo not shown)	-35.85
Cc1nccc(C(=O)N2CCOC(c3nc(C(C)C)n[nH]3)C2)n1 (stereo not shown)	-38.15
O=C(Cc1csc(-c2ccsc2)n1)N1CCN(c2cnccn2)CC1	-18.88
CCn1cc(CN2CCCN(C(=O)c3sccc3OC)CC2)cn1	-53.06
CNc1cc(N2CCCC2CNCc2csc(C(C)C)n2)ncn1 (stereo not shown)	-17.42
O=C(NCc1ccccn1)C1=NN(c2ccccc2)C(=O)CN1	-11.58
Cc1cccc(OCC(O)CN2CCC(c3ccn[nH]3)CC2)c1 (stereo not shown)	7.407
Cc1noc(CCCC(=O)N2CCCC2c2ccsc2)n1 (stereo not shown)	-63.02
CCCc1n[nH]c(C2CN(Cc3nnc(C4CCC4)o3)CCO2)n1 (stereo not shown)	-8.922
Cc1ccc(CS(=O)(=O)CC(=O)NCCCOC(C)C)cc1	-31.8
CCN(Cc1ccc2c(c1)OCCO2)C(=O)Cn1cccnc1=O	-38.43
COc1ccc(COCC(O)CNC(=O)c2ccc(C#N)cc2)cc1 (stereo not shown)	-4.689
Cc1nnc(NC(=O)NCc2ccc(OC3CCCC3)nc2)s1	-13.64
CC(Cn1ccnc1)NC(=O)NCc1cccnc1OC1CCCC1 (stereo not shown)	-18.02
Cc1cn2c(n1)CCC(NC(=O)c1[nH]ncc1Br)C2 (stereo not shown)	-21.92
CCOCCCn1c(NC(=O)c2cc(C)on2)nc2ccccc21	-33.65
Cc1ccc(F)c(S(=O)(=O)NCc2cccc(C(=O)N3CCCC3)c2)c1	-36.51
Cc1nn(C)c(C)c1C1CCCN1C(=O)c1ccc(N(C)C)nn1 (stereo not shown)	-0.6693
O=C(CNCCn1cccn1)NCC1(c2ccccc2)CCCC1	-54.78
N#Cc1cnn(-c2ccc(C(=O)N(C3CCCCC3)C3CC3)cc2)c1N	-58.12
CN(Cc1cccs1)C(=O)CN1CCOC(Cn2cncn2)C1 (stereo not shown)	4.831
CNC(=O)CS(=O)(=O)Cc1cc(Cl)c2c(c1)OCCO2	-1.925
COc1c(CNCc2ccc(S(C)(=O)=O)cc2)c(C)nn1C	-43.92
CNC(=O)COc1ccc(CNc2cncc(-n3cccn3)n2)cc1	-33.88
Cc1cnn(CC2CN(c3ncnc4[nH]ccc34)CCO2)c1 (stereo not shown)	-21.65
O=C(c1ccc(N2CCOCC2)cc1)N1CCCC(n2ccnc2)C1 (stereo not shown)	-21.09
CCc1nc2n(n1)CC(NCc1cnn(Cc3ccccc3)c1)CC2 (stereo not shown)	-47.18
NC(=O)C1CCN(C(=O)c2cccn2Cc2cccs2)C1 (stereo not shown)	-31.51
CCc1nnc2n1CCN(Cc1cc(Cl)c3c(c1)OCCO3)C2	-18.98
O=C(c1cnn(-c2ccccc2)n1)N1CCCC(n2cccn2)C1 (stereo not shown)	-34.46
CCOC(=O)N1CCC(NC(=O)Nc2cccnc2OCC)CC1	-34.17
Cc1oc(-c2ccco2)nc1CN1CCCC(Cn2cncn2)C1 (stereo not shown)	-74.42
Cc1noc(CN2CCN(C(=O)N(C)C)CC2)n1	-56.5
CN(Cc1ccc(F)cc1)C(=O)CN1CCOC(Cn2cccn2)C1 (stereo not shown)	-24.48

Some entries from above, unchanged:

| Compound | effect |
|---|---|
| `Cc1ncc(C(=O)N2CCCC(n3nc(C)nc3C)C2)c(C(C)C)n1` (stereo not shown) | -43.62 |
| `CC(Cn1ccnc1)NC(=O)NCc1cccnc1OC1CCCC1` (stereo not shown) | -18.02 |
| `Clc1cccc(Cl)c1-c1nnc(CNCCn2cccn2)o1` | -18.38 |
| `CCOCCCn1c(NC(=O)c2cc(C)on2)nc2ccccc21` | -33.65 |

Data taken from ChEMBL document CHEMBL3988442, “University of Dundee, Small-Polar-MMV Screening Library” (2021).